Assay results published in US20110046210A1, “SUBSTITUTED THIOPENECARBOXAMIDES AS IKK-BETA SERINE-, THREONINE-PROTEIN KINASE INHIBITORS” (CHROMA THERAPEUTICS LTD., priority 2008, published 2011).

Tested on: human whole blood
Assay: LPS-stimulation of human whole blood, TNF-α release
Format: cell-based
Conditions: IC50 human whole blood / IC50 IKKβ enzyme
Description: Whole blood was taken by venous puncture using heparinised vacutainers (Becton Dickinson) and diluted in an equal volume of RPMI1640 tissue culture media (Sigma). 100 μl was plated in V-bottomed 96 well tissue culture treated plates. 2 hours after the addition of the inhibitor in 100 μl of RPMI1640 media, the blood was stimulated with LPS (E coli strain 005:B5, Sigma) at a final concentration of 100 ng/ml and incubated at 37° C. in 5% CO2 for 6 hours. TNF-α levels were measured from cell-free supernatants by sandwich ELISA (R&D Systems #QTA00B). Human heparinised blood (17-IU/ml) was diluted with an equal volume of RPMI-1640 and then sub-aliquoted into 96 well microtitre wells (100 µl/well). Inhibitors of IKKβ that had been serially diluted in RPMI-1640 were added to the wells (100 µl/well) to give a range of final concentrations (5-10000 nM). After incubation for 2 hours at 37° C., TNF[…] production was stimulated for 6 hours at 37° C. by the addition of 10 µl of LPS (E Coli 055:B5) to give a final concentration of 100 ng/ml. Plates were then centrifuged for 3 minutes at 800 g and TNF[…] present in the supernatant then measured, using a QuantiGlo Chemiluminescent ELISA (R&D Systems). The human whole blood assay measures the ability of the compounds to inhibit the LPS stimulated production of TNF alpha in human blood cells mediated by IKKβ in a physiologically relevant setting.

| Structure (SMILES) | Ratio: Human whole blood/enzyme |
| --- | --- |
| CC(C)(NCc1cccc(-c2cc(C(N)=O)c(NC(N)=O)s2)c1)C(=O)OC1CCCC1 [Example 1, Cyclopentyl N-{3-[4-carbamoyl-5-(carbamoylamino)-2-thienyl]benzyl}-2-methylalaninate] | 1 |
| NC(=O)Nc1sc(-c2ccccc2)cc1C(N)=O [Compound I, reference compound] | 100 |
